According to article PMC11352961 (RSC Chemical Biology, 2024):

Assay: general procedure: Fmoc solid-phase peptide synthesis; Rink Amide AM resin LL (Novabiochem)
Details: whole synthesis, TFA salt

Substance	isolated yield
PEPTIDE1{R.L.K.R.L.K.R.L.K.[Lys(C18)].A.[am]}|PEPTIDE2{R.L.K.R.L.K.R.L}|PEPTIDE3{R.L.K.R.L}|PEPTIDE4{R.L.K.R.L}|PEPTIDE5{R.L}|PEPTIDE6{R.L}|PEPTIDE7{R.L}|PEPTIDE8{R.L}$PEPTIDE1,PEPTIDE2,9:R3-8:R2|PEPTIDE1,PEPTIDE3,6:R3-5:R2|PEPTIDE2,PEPTIDE4,6:R3-5:R2|PEPTIDE1,PEPTIDE5,3:R3-2:R2|PEPTIDE2,PEPTIDE6,3:R3-2:R2|PEPTIDE3,PEPTIDE7,3:R3-2:R2|PEPTIDE4,PEPTIDE8,3:R3-2:R2$$$V2.0	4.7%
PEPTIDE1{R.L.K.R.L.K.R.L.K.[Lys(C18)].C.[am]}|PEPTIDE2{R.L.K.R.L.K.R.L}|PEPTIDE3{R.L.K.R.L}|PEPTIDE4{R.L.K.R.L}|PEPTIDE5{R.L}|PEPTIDE6{R.L}|PEPTIDE7{R.L}|PEPTIDE8{R.L}$PEPTIDE1,PEPTIDE2,9:R3-8:R2|PEPTIDE1,PEPTIDE3,6:R3-5:R2|PEPTIDE2,PEPTIDE4,6:R3-5:R2|PEPTIDE1,PEPTIDE5,3:R3-2:R2|PEPTIDE2,PEPTIDE6,3:R3-2:R2|PEPTIDE3,PEPTIDE7,3:R3-2:R2|PEPTIDE4,PEPTIDE8,3:R3-2:R2$$$V2.0	2.3%
PEPTIDE1{R.L.K.R.L.K.R.L.K.[Lys(C18)].[am]}|PEPTIDE2{R.L.K.R.L.K.R.L}|PEPTIDE3{R.L.K.R.L}|PEPTIDE4{R.L.K.R.L}|PEPTIDE5{R.L}|PEPTIDE6{R.L}|PEPTIDE7{R.L}|PEPTIDE8{R.L}$PEPTIDE1,PEPTIDE2,9:R3-8:R2|PEPTIDE1,PEPTIDE3,6:R3-5:R2|PEPTIDE2,PEPTIDE4,6:R3-5:R2|PEPTIDE1,PEPTIDE5,3:R3-2:R2|PEPTIDE2,PEPTIDE6,3:R3-2:R2|PEPTIDE3,PEPTIDE7,3:R3-2:R2|PEPTIDE4,PEPTIDE8,3:R3-2:R2$$$V2.0	2.8%
PEPTIDE1{[dK].[dL].[dK].[dK].[dL].[dK].[dK].[dL].[dK].[D-Lys(C16)].[am]}|PEPTIDE2{[dK].[dL].[dK].[dK].[dL].[dK].[dK].[dL]}|PEPTIDE3{[dK].[dL].[dK].[dK].[dL]}|PEPTIDE4{[dK].[dL].[dK].[dK].[dL]}|PEPTIDE5{[dK].[dL]}|PEPTIDE6{[dK].[dL]}|PEPTIDE7{[dK].[dL]}|PEPTIDE8{[dK].[dL]}$PEPTIDE1,PEPTIDE2,9:R3-8:R2|PEPTIDE1,PEPTIDE3,6:R3-5:R2|PEPTIDE2,PEPTIDE4,6:R3-5:R2|PEPTIDE1,PEPTIDE5,3:R3-2:R2|PEPTIDE2,PEPTIDE6,3:R3-2:R2|PEPTIDE3,PEPTIDE7,3:R3-2:R2|PEPTIDE4,PEPTIDE8,3:R3-2:R2$$$V2.0	8.6%
PEPTIDE1{[dK].[dL].[dK].[dK].[dL].[dK].[dK].[dL].[dK].[D-Lys(C18)].[D-Lys(C18)].[am]}|PEPTIDE2{[dK].[dL].[dK].[dK].[dL].[dK].[dK].[dL]}|PEPTIDE3{[dK].[dL].[dK].[dK].[dL]}|PEPTIDE4{[dK].[dL].[dK].[dK].[dL]}|PEPTIDE5{[dK].[dL]}|PEPTIDE6{[dK].[dL]}|PEPTIDE7{[dK].[dL]}|PEPTIDE8{[dK].[dL]}$PEPTIDE1,PEPTIDE2,9:R3-8:R2|PEPTIDE1,PEPTIDE3,6:R3-5:R2|PEPTIDE2,PEPTIDE4,6:R3-5:R2|PEPTIDE1,PEPTIDE5,3:R3-2:R2|PEPTIDE2,PEPTIDE6,3:R3-2:R2|PEPTIDE3,PEPTIDE7,3:R3-2:R2|PEPTIDE4,PEPTIDE8,3:R3-2:R2$$$V2.0	2.6%
PEPTIDE1{[dK].[dL].[dK].[dK].[dL].[dK].[dK].[dL].[dK].[D-Lys(C18)].[am]}|PEPTIDE2{[dK].[dL].[dK].[dK].[dL].[dK].[dK].[dL]}|PEPTIDE3{[dK].[dL].[dK].[dK].[dL]}|PEPTIDE4{[dK].[dL].[dK].[dK].[dL]}|PEPTIDE5{[dK].[dL]}|PEPTIDE6{[dK].[dL]}|PEPTIDE7{[dK].[dL]}|PEPTIDE8{[dK].[dL]}$PEPTIDE1,PEPTIDE2,9:R3-8:R2|PEPTIDE1,PEPTIDE3,6:R3-5:R2|PEPTIDE2,PEPTIDE4,6:R3-5:R2|PEPTIDE1,PEPTIDE5,3:R3-2:R2|PEPTIDE2,PEPTIDE6,3:R3-2:R2|PEPTIDE3,PEPTIDE7,3:R3-2:R2|PEPTIDE4,PEPTIDE8,3:R3-2:R2$$$V2.0	7.6%
PEPTIDE1{[dK].[dL].[dK].[dK].[dL].[dK].[dK].[dL].[dK].[D-Lys(C18)].[dA].[am]}|PEPTIDE2{[dK].[dL].[dK].[dK].[dL].[dK].[dK].[dL]}|PEPTIDE3{[dK].[dL].[dK].[dK].[dL]}|PEPTIDE4{[dK].[dL].[dK].[dK].[dL]}|PEPTIDE5{[dK].[dL]}|PEPTIDE6{[dK].[dL]}|PEPTIDE7{[dK].[dL]}|PEPTIDE8{[dK].[dL]}$PEPTIDE1,PEPTIDE2,9:R3-8:R2|PEPTIDE1,PEPTIDE3,6:R3-5:R2|PEPTIDE2,PEPTIDE4,6:R3-5:R2|PEPTIDE1,PEPTIDE5,3:R3-2:R2|PEPTIDE2,PEPTIDE6,3:R3-2:R2|PEPTIDE3,PEPTIDE7,3:R3-2:R2|PEPTIDE4,PEPTIDE8,3:R3-2:R2$$$V2.0	9%
PEPTIDE1{[dK].[dL].[dK].[dK].[dL].[dK].[dK].[dL].[dK].[dL].[dL].[dL].[dL].[dL].[am]}|PEPTIDE2{[dK].[dL].[dK].[dK].[dL].[dK].[dK].[dL]}|PEPTIDE3{[dK].[dL].[dK].[dK].[dL]}|PEPTIDE4{[dK].[dL].[dK].[dK].[dL]}|PEPTIDE5{[dK].[dL]}|PEPTIDE6{[dK].[dL]}|PEPTIDE7{[dK].[dL]}|PEPTIDE8{[dK].[dL]}$PEPTIDE1,PEPTIDE2,9:R3-8:R2|PEPTIDE1,PEPTIDE3,6:R3-5:R2|PEPTIDE2,PEPTIDE4,6:R3-5:R2|PEPTIDE1,PEPTIDE5,3:R3-2:R2|PEPTIDE2,PEPTIDE6,3:R3-2:R2|PEPTIDE3,PEPTIDE7,3:R3-2:R2|PEPTIDE4,PEPTIDE8,3:R3-2:R2$$$V2.0	9.5%
PEPTIDE1{[dK].[dL].[dK].[dK].[dL].[dK].[dL].[dL].[dK].[D-Lys(C18)].[am]}|PEPTIDE2{[dK].[dL].[dK].[dK].[dL].[dK].[dL].[dL]}|PEPTIDE3{[dK].[dL].[dK].[dK].[dL]}|PEPTIDE4{[dK].[dL].[dK].[dK].[dL]}|PEPTIDE5{[dK].[dL]}|PEPTIDE6{[dK].[dL]}|PEPTIDE7{[dK].[dL]}|PEPTIDE8{[dK].[dL]}$PEPTIDE1,PEPTIDE2,9:R3-8:R2|PEPTIDE1,PEPTIDE3,6:R3-5:R2|PEPTIDE2,PEPTIDE4,6:R3-5:R2|PEPTIDE1,PEPTIDE5,3:R3-2:R2|PEPTIDE2,PEPTIDE6,3:R3-2:R2|PEPTIDE3,PEPTIDE7,3:R3-2:R2|PEPTIDE4,PEPTIDE8,3:R3-2:R2$$$V2.0	5.3%
PEPTIDE1{[dK].[dL].[dK].[dL].[dL].[dK].[dL].[dL].[dK].[D-Lys(C18)].[am]}|PEPTIDE2{[dK].[dL].[dK].[dL].[dL].[dK].[dL].[dL]}|PEPTIDE3{[dK].[dL].[dK].[dL].[dL]}|PEPTIDE4{[dK].[dL].[dK].[dL].[dL]}|PEPTIDE5{[dK].[dL]}|PEPTIDE6{[dK].[dL]}|PEPTIDE7{[dK].[dL]}|PEPTIDE8{[dK].[dL]}$PEPTIDE1,PEPTIDE2,9:R3-8:R2|PEPTIDE1,PEPTIDE3,6:R3-5:R2|PEPTIDE2,PEPTIDE4,6:R3-5:R2|PEPTIDE1,PEPTIDE5,3:R3-2:R2|PEPTIDE2,PEPTIDE6,3:R3-2:R2|PEPTIDE3,PEPTIDE7,3:R3-2:R2|PEPTIDE4,PEPTIDE8,3:R3-2:R2$$$V2.0	5.8%
PEPTIDE1{[dR].[dL].[dK].[dL].[dL].[dK].[dL].[dL].[dK].[dK].[am]}|PEPTIDE2{[dR].[dL].[dK].[dL].[dL].[dK].[dL].[dL]}|PEPTIDE3{[dR].[dL].[dK].[dL].[dL]}|PEPTIDE4{[dR].[dL].[dK].[dL].[dL]}|PEPTIDE5{[dR].[dL]}|PEPTIDE6{[dR].[dL]}|PEPTIDE7{[dR].[dL]}|PEPTIDE8{[dR].[dL]}|CHEM1{[C18]}$PEPTIDE1,PEPTIDE2,9:R3-8:R2|PEPTIDE1,PEPTIDE3,6:R3-5:R2|PEPTIDE2,PEPTIDE4,6:R3-5:R2|PEPTIDE1,PEPTIDE5,3:R3-2:R2|PEPTIDE2,PEPTIDE6,3:R3-2:R2|PEPTIDE3,PEPTIDE7,3:R3-2:R2|PEPTIDE4,PEPTIDE8,3:R3-2:R2|PEPTIDE1,CHEM1,10:R3-1:R2$$$V2.0	2.3%
PEPTIDE1{[dR].[dL].[dK].[dR].[dL].[dK].[dL].[dL].[dK].[dK].[am]}|PEPTIDE2{[dR].[dL].[dK].[dR].[dL].[dK].[dL].[dL]}|PEPTIDE3{[dR].[dL].[dK].[dR].[dL]}|PEPTIDE4{[dR].[dL].[dK].[dR].[dL]}|PEPTIDE5{[dR].[dL]}|PEPTIDE6{[dR].[dL]}|PEPTIDE7{[dR].[dL]}|PEPTIDE8{[dR].[dL]}|CHEM1{[C18]}$PEPTIDE1,PEPTIDE2,9:R3-8:R2|PEPTIDE1,PEPTIDE3,6:R3-5:R2|PEPTIDE2,PEPTIDE4,6:R3-5:R2|PEPTIDE1,PEPTIDE5,3:R3-2:R2|PEPTIDE2,PEPTIDE6,3:R3-2:R2|PEPTIDE3,PEPTIDE7,3:R3-2:R2|PEPTIDE4,PEPTIDE8,3:R3-2:R2|PEPTIDE1,CHEM1,10:R3-1:R2$$$V2.0	4.3%
PEPTIDE1{[dR].[dL].[dK].[dR].[dL].[dK].[dR].[dL].[dK].[dK].[am]}|PEPTIDE2{[dR].[dL].[dK].[dR].[dL].[dK].[dR].[dL]}|PEPTIDE3{[dR].[dL].[dK].[dR].[dL]}|PEPTIDE4{[dR].[dL].[dK].[dR].[dL]}|PEPTIDE5{[dR].[dL]}|PEPTIDE6{[dR].[dL]}|PEPTIDE7{[dR].[dL]}|PEPTIDE8{[dR].[dL]}|CHEM1{[C16]}$PEPTIDE1,PEPTIDE2,9:R3-8:R2|PEPTIDE1,PEPTIDE3,6:R3-5:R2|PEPTIDE2,PEPTIDE4,6:R3-5:R2|PEPTIDE1,PEPTIDE5,3:R3-2:R2|PEPTIDE2,PEPTIDE6,3:R3-2:R2|PEPTIDE3,PEPTIDE7,3:R3-2:R2|PEPTIDE4,PEPTIDE8,3:R3-2:R2|PEPTIDE1,CHEM1,10:R3-1:R2$$$V2.0	5.1%
PEPTIDE1{[dR].[dL].[dK].[dR].[dL].[dK].[dR].[dL].[dK].[dK].[am]}|PEPTIDE2{[dR].[dL].[dK].[dR].[dL].[dK].[dR].[dL]}|PEPTIDE3{[dR].[dL].[dK].[dR].[dL]}|PEPTIDE4{[dR].[dL].[dK].[dR].[dL]}|PEPTIDE5{[dR].[dL]}|PEPTIDE6{[dR].[dL]}|PEPTIDE7{[dR].[dL]}|PEPTIDE8{[dR].[dL]}|CHEM1{[C18]}$PEPTIDE1,PEPTIDE2,9:R3-8:R2|PEPTIDE1,PEPTIDE3,6:R3-5:R2|PEPTIDE2,PEPTIDE4,6:R3-5:R2|PEPTIDE1,PEPTIDE5,3:R3-2:R2|PEPTIDE2,PEPTIDE6,3:R3-2:R2|PEPTIDE3,PEPTIDE7,3:R3-2:R2|PEPTIDE4,PEPTIDE8,3:R3-2:R2|PEPTIDE1,CHEM1,10:R3-1:R2$$$V2.0	4.7%

HELM strings list residues between dots; [ac] is acetyl, [am] amide, other brackets name non-standard units.
